From patent publication EP1133517B1
No constants are given. Whether binding was seen depends on the method and setting. Some entries that bind do so weakly or less than the wild type.

Biological target: T1, endogenous NF-kB p65 subunit of 70Z/3 cells (mouse (endogenous in murine 70Z/3 cells)), Q04207
T1 chain: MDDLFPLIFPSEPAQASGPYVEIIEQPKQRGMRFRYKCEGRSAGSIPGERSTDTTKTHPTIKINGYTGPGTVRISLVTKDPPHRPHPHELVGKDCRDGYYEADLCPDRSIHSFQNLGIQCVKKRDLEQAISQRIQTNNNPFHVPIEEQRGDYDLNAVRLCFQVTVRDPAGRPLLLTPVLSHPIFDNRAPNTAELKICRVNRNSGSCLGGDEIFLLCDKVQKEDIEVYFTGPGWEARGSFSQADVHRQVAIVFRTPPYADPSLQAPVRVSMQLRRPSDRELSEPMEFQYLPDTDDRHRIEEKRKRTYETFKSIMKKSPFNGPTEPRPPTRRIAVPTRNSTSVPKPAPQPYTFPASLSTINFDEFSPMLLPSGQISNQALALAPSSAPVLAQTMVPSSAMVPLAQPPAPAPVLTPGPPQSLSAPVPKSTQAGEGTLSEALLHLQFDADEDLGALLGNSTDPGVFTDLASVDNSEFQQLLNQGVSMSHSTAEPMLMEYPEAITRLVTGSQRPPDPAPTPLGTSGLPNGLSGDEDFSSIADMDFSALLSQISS
Assay: EMSA supershift, nuclear extracts of LPS-treated 70Z/3 cells
Conditions: remark: other sources report otherwise

binding: binds
B1: endogenous NF-kB p50 subunit of 70Z/3 cells, P25799 1-431 (protein, mouse (endogenous in murine 70Z/3 cells), UniProt P25799 1-431, looked up)
chain: MADDDPYGTGQMFHLNTALTHSIFNAELYSPEIPLSTDGPYLQILEQPKQRGFRFRYVCEGPSHGGLPGASSEKNKKSYPQVKICNYVGPAKVIVQLVTNGKNIHLHAHSLVGKHCEDGVCTVTAGPKDMVVGFANLGILHVTKKKVFETLEARMTEACIRGYNPGLLVHSDLAYLQAEGGGDRQLTDREKEIIRQAAVQQTKEMDLSVVRLMFTAFLPDSTGSFTRRLEPVVSDAIYDSKAPNASNLKIVRMDRTAGCVTGGEEIYLLCDKVQKDDIQIRFYEEEENGGVWEGFGDFSPTDVHRQFAIVFKTPKYKDVNITKPASVFVQLRRKSDLETSEPKPFLYYPEIKDKEEVQRKRQKLMPNFSDSFGGGSGAGAGGGGMFGSGGGGGSTGSPGPGYGYSNYGFPPYGGITFHPGVTKSNAGVTHG
